The experiment can be described thus: qHTS Assay for Lipid Storage Modulators in Drosophila S3 Cells.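 On cell number change: cells counted by Cell Tracker Red CMTPX staining in the red channel.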 The settings on record: BODIPY lipid droplet fluorescence, 18-24 h; for cell number change: measured here: cell count max response, cells fed with added oleic acid. In outline: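 Drosophila S3 cells got compounds at several concentrations plus oleic acid (400 uM solution). Laser-scanning cytometry with 488 nm excitation read lipid droplets at 500-530 nm and cells at 575-640 nm. Percent activity was relative to 20 uM Triacsin C.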
(In qHTS, concentration-response curves come from the screen itself.)

[1] abbreviates: measured here: cell number channel AC50, cells fed with added oleic acid.
Setting [2] is: measured here: lipid fluorescence (Fed channel) AC50, cells fed with added oleic acid.

The list shows a part of the results. The main result of the screen is listed elsewhere. These columns were measured beside it and carry no call. Compounds called inactive in the main read-out are mostly missing here. The note in brackets gives the kind of curve behind each potency; many fits are weak.

Broadly, the AC50 is the concentration giving half of the maximal activity seen. As to `O=C(COc1ccc([N+](=O)[O-])cc1)Nc1ccc2c(c1)nc1n2CCOC1`, the cell number change turned out to be 10.7%. Moreover, the concentration at half-maximal activity (AC50) under setting [1] is 4.11 µM [rising, partial curve, poor fit]. As for `Cc1cc(C)cc(NC(=O)c2ccc3c(c2)CCN3S(C)(=O)=O)c1`, the cell number change is 25.5%. Besides, the AC50 under setting [2] was 18.4 µM [rising, partial curve]. Regarding `O=C(COC(=O)/C=C/c1ccc(F)cc1)Nc1nnc(-c2ccccc2)o1`, the cell number change is -5.7%. The AC50 under setting [2] was 29.1 µM [falling, single point]. With `COc1ccc(CCNC(=O)CSc2n[nH]c(N)n2)cc1OC`, the cell number change was -13.3%. The AC50 under setting [2] is 0.206 µM [falling, single point]. On to `CCOc1ccc(NC(=O)c2ccc(NC(=O)c3ccccc3Br)cc2)cc1`, for which the cell number change is 13%. As for `CC(OCC(O)CN1CCCCC1CCO)c1ccc(Cl)cc1` (configuration not stated), the cell number change is 8.4%. Consider `CN1CCN(CCC(=O)Nc2cccc(Br)c2)CC1`, for which the cell number change was -14.6%. As to `Cc1cc(C)c(NC(=O)C(C)OC(=O)c2cc(Br)c(Br)s2)c(C)c1` (configuration not stated), the cell number change is -0.352%. In addition, the AC50 under setting [2] is 0.651 µM [falling, full curve, poor fit]. As to `Cc1nn2c(=O)cc(COC(=O)c3ccc(NC(=O)C(C)(C)C)cc3)nc2s1`, under setting [2], the AC50 is 11.6 µM [falling, partial curve].

Regarding `CNc1cc(-n2nc(C)cc2-c2ccccc2)ncn1`, the cell number change turned out to be 1.44%. Also, the AC50 under setting [2] was 2.59 µM [rising, single point]. Turning to `O=C(NCc1ccco1)C(=O)NCC1OCCN1S(=O)(=O)c1ccc(Cl)cc1` (configuration not stated), the cell number change is 0.503%. Moreover, the AC50 under setting [2] is 0.58 µM [rising, single point]. For `Cc1cc(C(=O)CSc2nc(N)cc(=O)[nH]2)c(C)n1-c1cccc(F)c1`, the cell number change is -2.11%. Besides, the AC50 under setting [2] is 29.1 µM [falling, single point]. On to `CCOc1c(Br)cc(CNc2ccc(N3CCN(C(C)=O)CC3)cc2)cc1OC`, for which the cell number change is -0.367%. With `Cc1ccc(C)c(NC(=O)C(Sc2ncnc3ccccc23)c2ccccc2)c1` (configuration not stated), the AC50 under setting [2] is 0.731 µM [falling, full curve]. On to `COc1ccccc1NC(=O)Cn1cnc2sc(C(=O)Nc3ccc(OC)c(OC)c3)c(C)c2c1=O`, for which the cell number change is -2.85%. Moreover, under setting [2], the AC50 was 1.46 µM [rising, partial curve]. For `O=C(CCC(=O)Nc1ccc(F)cc1)N/N=C/c1cc([N+](=O)[O-])ccc1O`, the cell number change is -12%. The half-maximal activity concentration (AC50) under setting [2] is 1.84 µM [falling, single point]. Turning to `Cc1ncc(CO)c2c1Oc1nc(-c3ccccc3)nc(SCC(=O)N3CCCCC3)c1C2`, the cell number change was -23.3%. In addition, the AC50 under setting [1] is 0.231 µM [falling, full curve, poor fit]. `C[n+]1cn(Cc2cc(Cl)ccc2OC(F)F)c2ccccc21`: the cell number change was -7.8%. The AC50 under setting [1] was 6.51 µM [rising, single point]. For the molecule `O=C(COC(=O)C1CCN(c2ccc(C(F)(F)F)cn2)CC1)Nc1ccc(Cl)cn1`, the cell number change was 1.64%. Further, the AC50 under setting [2] is 0.0291 µM [falling, full curve, poor fit]. With `Cc1ccn2c(=O)nc(SCC(=O)Nc3cc(C)on3)nc2c1`, the AC50 under setting [1] was 0.326 µM [rising, full curve]. Consider `COc1ccc2nc(C)cc(N3CCOCC3)c2c1`, for which the AC50 under setting [2] was 0.291 µM [falling, partial curve, poor fit]. On to `COc1ccc(Cl)cc1Nc1nc(N)c2ccccc2n1`, for which the cell number change is -15.8%. For the same molecule, the AC50 under setting [2] is 2.31 µM [rising, partial curve]. Consider `COc1ccc(NC(=O)NNC(=O)COc2ccc3ccccc3c2)cc1OC`, for which the cell number change amounted to 32.7%. Under setting [1], the AC50 is 32.6 µM [rising, single point]. Also, the AC50 under setting [2] is 29.1 µM [rising, single point].

With `CC1Cc2ccccc2N1C(=O)CN(C)CC(=O)Nc1cccc(F)c1` (configuration not stated), the cell number change stood at 6.64%. In addition, the AC50 under setting [1] was 6.51 µM [falling, single point]. In the case of `O=C(CSc1cccc(C(F)(F)F)c1)Nc1ccc(Cl)cc1Cl`, the cell number change is -62.6%. Also, under setting [1], the AC50 was 13 µM [falling, partial curve, poor fit]. With `Cn1c(=O)c2c(nc(N/N=C/c3cccnc3)n2Cc2ccccc2)n(C)c1=O`, the cell number change amounted to 13.8%. Also, under setting [2], the AC50 is 1.16 µM [rising, full curve, poor fit]. As for `Cn1c2ccccc2c(=O)c2c(=O)n(-c3ccc(F)cc3)c(-c3cccs3)nc21`, the cell number change is -41.9%. The AC50 under setting [1] was 18.4 µM [falling, single point]. For the same molecule, the AC50 under setting [2] is 29.1 µM [falling, single point].

Take `COc1ccc(CN(CC(=O)NCc2ccccc2)C(=O)CCC(=O)Nc2cc(C)ccn2)cc1`: the cell number change was -32.1%. The AC50 under setting [1] was 0.13 µM [falling, full curve, poor fit]. In addition, the AC50 under setting [2] was 6.51 µM [falling, single point]. Regarding `CCn1cc(C=O)c2cc(S(=O)(=O)N3CCOCC3)ccc21`, the cell number change was -13.8%. The AC50 under setting [2] is 13 µM [rising, single point].

`CCSC1=NC(C)(C)C=C(C)N1`: the cell number change is -9.47%. In addition, the AC50 under setting [1] was 3.66 µM [falling, single point]. Under setting [2], the AC50 is 3.26 µM [falling, single point]. Regarding `CS(=O)(=O)Nc1ccc(C2=NN(S(=O)(=O)c3ccc(F)cc3)C(c3ccco3)C2)cc1` (configuration not stated), the cell number change stood at 11.6%. Take `COC(=O)Nc1nnc(Cc2ccc(OC)cc2)s1`: the cell number change stood at 8.23%. Also, the AC50 under setting [2] was 4.61 µM [falling, single point].

`CCn1c2ccccc2c2cc(NC(=O)CSc3nnc(-c4ccccc4OC)n3N)ccc21`: the AC50 runs as follows: under setting [1], 0.206 µM [rising, full curve, poor fit]; under setting [2], 0.58 µM [rising, partial curve].

Turning to `CCOc1ccccc1NC(=O)COC(=O)CN(C)S(=O)(=O)c1ccc(C)cc1`, the AC50 runs as follows: under setting [1], 0.651 µM [rising, single point]; under setting [2], 6.51 µM [rising, single point]. Regarding `Cc1cc(/C([O-])=C(/C(=S)Nc2ccc(F)cc2)[n+]2ccccc2)c(C)n1Cc1ccccc1Cl`, the cell number change worked out at 36.9%. For the same molecule, the AC50 under setting [1] was 4.61 µM [rising, partial curve]. Turning to `Cc1cc(C)n2c(SC/C(O)=C(\C#N)c3nc4ccccc4[nH]3)nnc2n1`, the cell number change is -11.4%. As for `O=C(N/N=C/c1cnc2ccccc2n1)c1cccc(F)c1`, the cell number change stood at 28.5%. The AC50 under setting [2] was 1.46 µM [rising, full curve].

Consider `CCOc1ccc(S(=O)(=O)N(C)CC(=O)NCCN2CCOCC2)cc1`, for which the cell number change was -34.2%. The AC50 under setting [1] was 29.1 µM [falling, single point]. As for `Cc1ccc2oc(C(=O)N(CCO)Cc3ccccc3)c(C)c2c1`, the cell number change was -12.9%. Further, the AC50 under setting [2] was 13 µM [falling, partial curve].

The values above are taken from PubChem BioAssay AID2685 (National Center for Advancing Translational Sciences (NCATS), 2010).
